# Experimental data reported in publication PMC9203013.
# The chains behind the UniProt entries cited, without tags or fusion partners.
# UniProt P92177: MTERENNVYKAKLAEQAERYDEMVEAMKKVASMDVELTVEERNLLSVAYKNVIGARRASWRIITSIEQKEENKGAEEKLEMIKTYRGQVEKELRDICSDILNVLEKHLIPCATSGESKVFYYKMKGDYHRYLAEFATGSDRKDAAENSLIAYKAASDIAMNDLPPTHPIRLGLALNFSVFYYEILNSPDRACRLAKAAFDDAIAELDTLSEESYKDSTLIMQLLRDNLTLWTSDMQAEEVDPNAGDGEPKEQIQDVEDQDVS
# Results are given in words; binding and its absence hold for the method and conditions named. Some binding calls cover weakened binding; strength is not graded here. Tags and fused reporters may be left off the sequences shown.
# Target: GST-14-3-3ε (Drosophila melanogaster) (UniProt P92177)
# Experiment: pull-down; MBP-Borr(113–221) fragments after kinase incubation (30°C, phosphorylation buffer with BSA) mixed with 20 μg GST-14-3-3ε in Pulldown buffer (25 mM Tris-Cl pH 7.6, 150 mM NaCl, 0.5% Triton X-100, 0.3 mM Na3VO4), 30 min on ice, then glutathione beads 1 h at 4°C; western blot with an MBP antibody; both purified
row,binding,Binder
1,binds,"MBP-Borealin(113–221) with S161A mutation, phosphorylated by PKD2 (domain or fragment, UniProt Q9VLD6 113-221, phosphorylated in vitro by human PKD2; phosphoserine at S163) SRNDEEDSSIGASGGSILAAHTGSLLRSTKAMRTPGPLHSARARRARRARSACGDLNILHSAKPPSISSSSSSSRNSRSKLRTPMASRAKAFSADRTPLKQKQMRSGSP"
2,binds,"MBP-Borealin(113–221) with S161A mutation, treated with Aurora B and PKD2 (domain or fragment, UniProt Q9VLD6 113-221, incubated in vitro with human Aurora B and human PKD2; phosphoserine at S163) SRNDEEDSSIGASGGSILAAHTGSLLRSTKAMRTPGPLHSARARRARRARSACGDLNILHSAKPPSISSSSSSSRNSRSKLRTPMASRAKAFSADRTPLKQKQMRSGSP"
